The values that follow come from PMC12697864, “cGAS Inhibits ALDH2 to Suppress Lipid Droplet Function and Regulate MASLD Progression” (Advanced Science, 2025).

The chains behind the UniProt entries cited, without tags or fusion partners. Where a name states a change or a piece, a line headed by the entry shows the natural chain unless it says otherwise. A line that says so, or that is headed by a name, gives the form on record, which may keep a tag or linker. Residues count along the entry.
ALDH2 in cells (Figure S3) (P05091, residues 18-517): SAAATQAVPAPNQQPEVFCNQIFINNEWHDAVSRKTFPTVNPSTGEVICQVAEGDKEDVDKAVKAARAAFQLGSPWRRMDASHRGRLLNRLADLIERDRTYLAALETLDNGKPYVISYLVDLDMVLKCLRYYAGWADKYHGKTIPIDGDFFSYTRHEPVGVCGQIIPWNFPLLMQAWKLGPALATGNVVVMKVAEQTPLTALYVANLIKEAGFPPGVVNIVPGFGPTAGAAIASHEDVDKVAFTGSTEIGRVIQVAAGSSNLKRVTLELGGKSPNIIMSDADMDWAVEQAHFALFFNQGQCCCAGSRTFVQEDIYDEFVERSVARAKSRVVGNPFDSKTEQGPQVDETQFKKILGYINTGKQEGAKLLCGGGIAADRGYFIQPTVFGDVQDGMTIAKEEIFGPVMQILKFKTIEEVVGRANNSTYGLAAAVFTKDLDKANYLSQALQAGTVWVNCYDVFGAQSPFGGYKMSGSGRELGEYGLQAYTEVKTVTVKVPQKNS
ALDH2-E504K, transfected in HEK293T (P05091, form named): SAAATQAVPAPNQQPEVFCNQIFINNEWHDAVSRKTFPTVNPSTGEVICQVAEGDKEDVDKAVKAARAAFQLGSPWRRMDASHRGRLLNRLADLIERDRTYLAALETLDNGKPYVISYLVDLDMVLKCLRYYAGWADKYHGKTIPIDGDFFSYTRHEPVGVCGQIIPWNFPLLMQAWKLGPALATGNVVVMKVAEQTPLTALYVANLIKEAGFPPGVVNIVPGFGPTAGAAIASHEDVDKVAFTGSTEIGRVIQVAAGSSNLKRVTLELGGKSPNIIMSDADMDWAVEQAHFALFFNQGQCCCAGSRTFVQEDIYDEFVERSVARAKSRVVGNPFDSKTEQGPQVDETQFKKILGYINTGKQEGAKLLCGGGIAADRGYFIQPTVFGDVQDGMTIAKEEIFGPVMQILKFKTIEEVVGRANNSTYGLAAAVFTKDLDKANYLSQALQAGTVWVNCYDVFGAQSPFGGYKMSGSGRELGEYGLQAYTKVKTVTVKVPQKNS
UniProt Q8N884: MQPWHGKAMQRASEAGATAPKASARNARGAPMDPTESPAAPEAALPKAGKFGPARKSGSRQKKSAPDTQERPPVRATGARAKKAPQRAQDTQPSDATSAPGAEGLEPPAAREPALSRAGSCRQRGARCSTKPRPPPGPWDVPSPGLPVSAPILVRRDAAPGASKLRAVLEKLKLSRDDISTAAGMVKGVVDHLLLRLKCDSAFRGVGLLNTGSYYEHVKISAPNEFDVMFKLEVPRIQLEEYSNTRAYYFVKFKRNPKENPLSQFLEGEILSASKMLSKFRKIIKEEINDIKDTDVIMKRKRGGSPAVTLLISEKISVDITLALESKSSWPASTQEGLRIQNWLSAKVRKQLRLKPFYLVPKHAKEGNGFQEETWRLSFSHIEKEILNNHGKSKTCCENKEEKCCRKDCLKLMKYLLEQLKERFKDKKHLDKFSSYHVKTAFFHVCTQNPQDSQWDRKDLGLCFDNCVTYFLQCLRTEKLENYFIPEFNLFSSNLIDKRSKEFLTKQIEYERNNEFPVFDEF
ΔMito-cGAS, mitochondria-localization signal-deleted cGAS mutant (aa161-190 deletion) (Q8N884, form named): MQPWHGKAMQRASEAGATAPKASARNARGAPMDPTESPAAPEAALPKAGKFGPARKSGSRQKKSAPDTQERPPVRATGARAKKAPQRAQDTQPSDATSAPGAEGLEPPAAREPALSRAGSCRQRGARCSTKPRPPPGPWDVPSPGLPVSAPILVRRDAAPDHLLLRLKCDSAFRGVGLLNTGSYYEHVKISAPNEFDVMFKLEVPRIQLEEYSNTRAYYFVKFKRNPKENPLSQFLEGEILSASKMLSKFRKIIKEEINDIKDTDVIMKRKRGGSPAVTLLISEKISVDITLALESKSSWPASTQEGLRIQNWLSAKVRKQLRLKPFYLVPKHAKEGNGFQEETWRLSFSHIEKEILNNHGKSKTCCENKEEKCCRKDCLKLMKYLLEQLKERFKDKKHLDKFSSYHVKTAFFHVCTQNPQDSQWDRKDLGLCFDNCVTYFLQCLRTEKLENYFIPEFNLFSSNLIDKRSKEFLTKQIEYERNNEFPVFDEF

Assay [1] concerns the target ALDH2 in cells (Figure S3) (human) (UniProt P05091). The assay can be described thus: co-IP; binding of WT-cGAS and cGAS mutants to ALDH2 in cells (Figure S3A-F); cell line, tags and direction of the IP not shown.
In assay [2] the target is endogenous ALDH2 of THP-1 cells (human (endogenous in THP-1)) (UniProt P05091). The assay can be described thus: co-IP; THP-1 whole-cell lysate incubated with an ALDH2-specific antibody overnight at 4 °C, protein A/G beads, washed with NETN buffer; endogenous proteins.
For assay [3], the target named is ALDH2-WT re-expressed in ALDH2-depleted THP-1 cells (human) (UniProt P05091). The experiment in a line: co-IP; Flag-IP from THP-1 cells depleted of ALDH2 and re-expressing ALDH2-WT, treated with ISD90 for the indicated time points.
In assay [4] the target is HA-cGAS, transfected in HEK293T (human) (UniProt Q8N884). The experiment in a line: co-IP; HEK293T transfected with the indicated DNA constructs, collected 48 h post-transfection; HA-IP and immunoblot (Figure 3E; Figure 1K). For orientation: Immunoblotting shows a protein as a band on a membrane.
Assay [5] addresses ALDH2 in BPH1 cells (Figure S5E) (human) (UniProt P05091). The experiment in a line: co-IP; BPH1 cells with ISD90 stimulation (Figure S5E); constructs and direction of the IP not shown.
The target of assay [6] is cGAS stably expressed in HepG2 cells (pLenti-blast-cGAS) (human) (UniProt Q8N884). The experiment in a line: co-IP; HA-IP from HepG2 cells stably expressing cGAS, treated with FFA for the indicated time points (Figure 6C) or with ISD90 (Figure S5F,G).

Results are given in words; binding and its absence hold for the method and conditions named. Binding seen in cells or lysates may run through a third protein. Some binding calls cover weakened binding; strength is not graded here.

Consider “cGAS KKEA (K173E/R176E/K407E/K411A), DNA-binding deficient (from UniProt Q8N884 1-522)”, for which, in assay [1], the binding entry is listed as “binds”.
As to cGAS K285A (from UniProt Q8N884 1-522), the binding result in assay [1] is listed as “binds”.
As for cGAS K173A (from UniProt Q8N884 1-522), in assay [1], the binding result was “binds”.
Still for that read-out and setting: the result for cGAS K414A (from UniProt Q8N884 1-522) reads “binds”; that for “cGAS GSAA (G212AS213A), enzymatically deficient (from UniProt Q8N884 1-522)”, “binds”.
For “endogenous cGAS of THP-1 cells (from UniProt Q8N884 1-522)”, the binding entry in assay [2] and in assay [3] was “binds” each time.
For “WT-cGAS, expressed in cells (Figure S3) (from UniProt Q8N884 1-522)”, the binding result in assay [1] was “binds”.
Consider “WT-ALDH2, transfected in HEK293T (from UniProt P05091 18-517)”, for which the binding entry in assay [4] was “binds”.
“ALDH2-E504K, transfected in HEK293T (from UniProt P05091 18-517)”: the binding entry in assay [4] is “binds”.
Consider “cGAS R255E, nucleosome-binding deficient (from UniProt Q8N884 1-522)”, for which the binding entry in assay [1] is “binds”.
For the substance “cGAS in BPH1 cells (Figure S5E) (from UniProt Q8N884 1-522)”, the binding result in assay [5] is given as “binds”.
In the case of “ALDH2 in HepG2 cells stably expressing cGAS (from UniProt P05091 18-517)”, in assay [6], the binding result was “binds”.
For “ΔMito-cGAS, mitochondria-localization signal-deleted cGAS mutant (aa161-190 deletion) (from UniProt Q8N884 1-522)”, the binding result in assay [1] is given as “binds”.
